In PubChem BioAssay AID445 (National Center for Advancing Translational Sciences (NCATS), 2006) one finds AC50 data, which are given here for 61 compounds.

The nature of this test: IkB Signaling. The following applies: ABC-DLBCL IkBa-CBG/CBR dual luciferase ratio (green luciferase fused to IkBa over red control in OCI-Ly3 lymphoma cells), 4 h. A digest of the protocol: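 Curves were fitted separately to fusion (green), unfused (red) and ratio luminescence, then classed by r2, magnitude and activity. Cells: OCI-Ly3, 4 h compound plus doxycycline at 37C; 10 uM MG-132 defined full response.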
The mark [1] stands for this setting: measured here: control luc red channel unless noted.

SMILES strings stand for the structures. The list shows a part of the results. The main result of the screen is listed elsewhere. These columns were measured beside it and carry no call. Most of these compounds were active or inconclusive in the main read-out, so they are no random draw. Potencies come from curve fits of mixed quality, noted in brackets.

With `Cc1cccc(N2C(=O)C(CC(=O)Nc3cccc(F)c3)N(Cc3cccs3)C2=O)c1` (configuration not stated), the half-maximal activity concentration (AC50) – broadly, the concentration at which the activity in the assay is half-maximal – under setting [1] was 15.8 µM [falling, single point].

For the compound `Cc1ccc(Nc2cc(C)nc3nc(Cc4ccc(Cl)cc4)nn23)cc1`, the AC50 under setting [1] is 25.1 µM [falling, partial curve].

`Cc1ccc(-c2ccc(=O)n(Cc3ccc(F)cc3)n2)cc1`: under setting [1], the AC50 was 39.8 µM [falling, single point].

Turning to `COc1cccc(CNC(=O)Cn2c(=O)oc3cc(S(=O)(=O)N4CCCC4)ccc32)c1`, the AC50 under setting [1] is 25.1 µM [falling, partial curve].

As for `Cc1ccc(CN2CCSc3ccc(C(=O)Nc4ccc(Cl)cc4)cc32)cc1`, under setting [1], the AC50 is 25.1 µM [falling, partial curve].

Take `CCOc1ccc(CCNC(=O)CCCc2cc(-c3ccc(OCC)cc3)on2)cc1`: under setting [1], the AC50 is 15.8 µM [falling, partial curve, poor fit].

Consider `N#Cc1c(/N=C/c2ccco2)oc(-c2ccccc2)c1-c1ccccc1`, for which the AC50 under setting [1] was 31.6 µM [falling, partial curve].

For the compound `O=C(CSc1nc(-c2ccc(F)cc2)cc(C(F)(F)F)n1)NCc1ccccc1`, under setting [1], the AC50 is 0.316 µM [rising, full curve].

As for `Cc1cc(C(=O)CSc2nnc(-c3ccco3)o2)c(C)n1-c1ccc2c(c1)OCCO2`, the half-maximal activity concentration (AC50) under setting [1] was 12.6 µM [falling, partial curve].

For `Cc1cccc(C(=O)Nc2c3c(nn2-c2ccc(Cl)cc2)CS(=O)(=O)C3)c1`, the AC50 under setting [1] was 31.6 µM [falling, partial curve].

Consider `CCOC(=O)c1ccc2c(c1)N(Cc1cccc(OC)c1)C(=O)c1ccccc1S2(=O)=O`, for which the AC50 under setting [1] was 3.98 µM [rising, single point].

Consider `CCOC(=O)c1c(-c2ccccc2)oc2ccc(NS(=O)(=O)c3ccc(OC)cc3)cc12`, for which the AC50 under setting [1] is 31.6 µM [falling, single point].

Take `CC(C)(C)OC(=O)N1CCC(c2c(C(=O)NC3CCN(Cc4ccccc4)CC3)cnn2-c2cccc(F)c2)CC1`: the AC50 under setting [1] is 31.6 µM [falling, single point].

In the case of `COc1ccc(S(=O)(=O)Nc2cccc(-c3ccc(N4CCOCC4)nn3)c2)cc1F`, the AC50 under setting [1] was 10 µM [falling, partial curve].

In the case of `O=C(Cn1nc(-c2ccccc2)ccc1=O)NCc1ccc(F)cc1Cl`, the AC50 under setting [1] was 39.8 µM [falling, single point].

Regarding `COc1ccccc1NC(=O)N(Cc1ccco1)Cc1cc2cc(C)cc(C)c2[nH]c1=O`, the half-maximal activity concentration (AC50) under setting [1] was 15.8 µM [falling, partial curve].

With `CC(=O)Nc1ccc(NC(=O)CCCc2nc(-c3ccc(C(C)(C)C)cc3)no2)cc1`, under setting [1], the AC50 was 10 µM [falling, partial curve].

For `CCOc1cc(C(=O)Nc2ccc3oc(-c4ccc(F)cc4Cl)nc3c2)cc(OCC)c1OCC`, the AC50 under setting [1] was 3.16 µM [falling, partial curve].

As for `COc1ccc(N(Cc2cccs2)C(=O)c2ccccc2C)cc1`, the AC50 under setting [1] was 39.8 µM [falling, single point].

For `Cc1ccc(NC(=O)c2cc(C)nn2-c2ccccc2)cc1`, the AC50 under setting [1] is 3.16 µM [falling, full curve].

`O=C(CCCCn1c(=O)c2ccccc2n(Cc2ccc(Cl)cc2)c1=O)NCc1ccccc1Cl`: the AC50 under setting [1] is 12.6 µM [falling, partial curve].

As for `Cc1cc(OC(C)C(=O)N(Cc2ccco2)Cc2ccccc2F)cc(C)c1Cl` (configuration not stated), the AC50 under setting [1] was 12.6 µM [falling, partial curve].

As for `Cc1ccc(CCNC(=O)C2CCN(c3nnc(C)c4c(C)n(-c5ccccc5)nc34)CC2)cc1`, under setting [1], the concentration at half-maximal activity (AC50) is 0.794 µM [falling, partial curve].

For `COc1ccc(CN(C2CCCC2)S(=O)(=O)c2ccc(-n3cnnn3)cc2)cc1OC`, under setting [1], the half-maximal activity concentration (AC50) was 39.8 µM [falling, single point].

On to `CCOc1cccc2sc(N(Cc3cccnc3)C(=O)C3CCCCC3)nc12`, for which the half-maximal activity concentration (AC50) under setting [1] is 2.51 µM [falling, full curve].

Consider `Cc1ccc(NC(=O)CSCc2cnn(-c3ccccc3)c2-n2cccc2)c(C)c1`, for which the AC50 under setting [1] is 25.1 µM [falling, single point].

For `Cc1ccc(NC(=O)CSc2nc3ccccc3c3nc(CCn4cncc4C)nn23)cc1F`, the AC50 under setting [1] was 31.6 µM [falling, partial curve].

For the compound `Cc1ccc(C)c(N2CCN(CCCNC(=O)C3COc4ccccc4C3)CC2)c1` (configuration not stated), the AC50 under setting [1] was 25.1 µM [falling, single point].

Consider `CN1CCN(C(c2ccccc2Cl)c2sc3nc(-c4ccco4)nn3c2O)CC1` (configuration not stated), for which, under setting [1], the concentration at half-maximal activity (AC50) was 3.98 µM [rising, full curve, poor fit].

As for `CCCS(=O)(=O)c1ncc(Cl)c(C(=O)N2CCN(c3ccc(OC)cc3)CC2)n1`, the AC50 under setting [1] was 2.51 µM [falling, full curve].

Turning to `Cc1ccc2ncc(C(=O)NCc3ccccc3Cl)c(=O)n2c1`, the AC50 under setting [1] was 3.16 µM [rising, full curve].

Turning to `CCN(Cc1ccccc1)Cc1c(O)ccc2c(=O)c(-c3ccccc3OC)c(C(F)(F)F)oc12`, the half-maximal activity concentration (AC50) under setting [1] was 25.1 µM [falling, single point].

With `Cc1cccc(OCCSc2nc3ccccc3n2CC(=O)N2CCCCC2)c1C`, under setting [1], the half-maximal activity concentration (AC50) is 25.1 µM [falling, single point].

Consider `CCOC(=O)c1ccc(N2CCN(c3cc(Cl)ccc3C)CC2)c(NC(=O)Nc2cccc(OC)c2)c1`, for which, under setting [1], the AC50 is 7.94 µM [falling, partial curve].

Take `COc1ccccc1NC(=O)c1oc2ccc(C)cc2c1C`: under setting [1], the AC50 was 12.6 µM [falling, partial curve].

`Cc1ccc(Cn2c(CNS(=O)(=O)c3c(C)cc(C)cc3C)nc3cccnc32)cc1`: the AC50 under setting [1] was 0.1 µM [rising, partial curve, poor fit].

As for `CC(=O)Nc1nonc1-c1nnc(SCC(=O)Nc2ccc(F)cc2F)n1-c1ccccc1`, under setting [1], the AC50 was 12.6 µM [falling, partial curve].

As for `Cc1cccc(S(=O)(=O)Nc2cccc(-c3cn4ccsc4n3)c2)c1`, under setting [1], the AC50 was 15.8 µM [falling, partial curve].

Take `CCc1ccc(-n2c(SC(CC)C(=O)N(CC)CC)nc3n[nH]c(C)c3c2=N)cc1` (configuration not stated): the AC50 under setting [1] is 12.6 µM [falling, partial curve].

`CCOCCCNC(=O)C1CCCN(Cc2nc(-c3ccc(CC)cc3)oc2C)C1` (configuration not stated): the AC50 under setting [1] was 20 µM [falling, partial curve, poor fit].

Regarding `CCn1ccc2cc(S(=O)(=O)N3CCCN(C(=O)Nc4ccccc4OC)CC3)ccc21`, under setting [1], the concentration at half-maximal activity (AC50) was 3.16 µM [falling, partial curve].

`CCc1ccc(OCC(=O)N(Cc2cccs2)c2ccc(Cl)cc2)cc1`: the AC50 under setting [1] was 31.6 µM [falling, partial curve].

Take `Cc1cc2oc(=O)c(CC(=O)NCCc3ccccc3)c(C)c2c2occ(C(C)(C)C)c12`: the AC50 under setting [1] is 15.8 µM [falling, partial curve].

For the compound `CCCOC(=O)c1c(C)oc2c1cc(NS(=O)(=O)c1ccc(OCC)cc1)c1ccccc12`, the AC50 is 2 µM [rising, partial curve] (measured here: IkB-luc green channel) and 1.58 µM [rising, partial curve] (measured here: control luc red channel).

In the case of `COc1ccc(-c2cn3c(n2)sc2cc(C(=O)NC4CCCc5ccccc54)ccc23)cc1` (configuration not stated), the AC50 under setting [1] was 12.6 µM [falling, partial curve].

With `Cc1[nH]c2ccccc2c1-c1nc2ccccc2[nH]1`, under setting [1], the AC50 is 0.126 µM [falling, full curve].

Regarding `O=C(Nc1c(F)cc(F)cc1Br)c1cc(-c2ccc(O)cc2)on1`, under setting [1], the AC50 was 12.6 µM [falling, partial curve].

`CCN(C(=O)CCc1nc(-c2ccc(C)cc2)no1)c1cc(C)ccc1C`: under setting [1], the AC50 was 39.8 µM [falling, single point].

On to `O=C1c2ccccc2CC[C@H]1CNCCc1ccc(O)cc1`, for which the AC50 under setting [1] is 39.8 µM [rising, single point] [measured here: IkB-luc green channel].

Turning to `CCc1ccc(NC(=O)CC2C(=O)N(c3cccc(OC)c3)C(=O)N2Cc2ccco2)cc1` (configuration not stated), under setting [1], the AC50 is 25.1 µM [falling, partial curve].

As for `Cc1ccc(C(Nc2ccccn2)c2ccc3cccnc3c2O)cc1` (configuration not stated), under setting [1], the AC50 is 3.98 µM [falling, full curve].

As for `C[C@@]12CCC(=O)C=C1CC[C@H]1[C@H]3CC[C@](O)(C(=O)CO)[C@]3(C)CC[C@@H]12`, the AC50 under setting [1] is 5.01 µM [rising, full curve] [measured here: IkB-luc green channel].

Consider `COc1cc(Cl)c(C)cc1NC(=O)CCc1c(C)nc2cc(-c3cccc(F)c3)nn2c1C`, for which the AC50 under setting [1] is 6.31 µM [falling, partial curve].

Regarding `CCc1c(C)sc2c1CCN(C(=O)Nc1ccccc1C(F)(F)F)C2c1ccccc1` (configuration not stated), under setting [1], the AC50 is 12.6 µM [falling, partial curve].

With `O=C(CCn1cnc2onc(-c3ccc(F)cc3)c2c1=O)N1CCN(c2ccc(F)cc2)CC1`, the AC50 under setting [1] was 15.8 µM [falling, partial curve].

For `O=C(c1ccc(-c2ccccc2)cc1)N1CCN(Cc2ccccn2)CC1`, the AC50 under setting [1] was 25.1 µM [falling, partial curve].

With `CCc1cccc(CC)c1NC(=O)Cn1nnc2sc(-c3ccccc3)cc2c1=O`, the AC50 under setting [1] is 25.1 µM [falling, single point].

For `Cc1ccc(-c2nc3ccc(Cl)cn3c2Nc2ccc3c(c2)OCCO3)o1`, the AC50 under setting [1] was 0.794 µM [falling, full curve, poor fit].

As to `CCN(CC)c1ccc(-c2nn3c(-c4n[nH]c5c4CCC5)nnc3s2)cc1`, the concentration at half-maximal activity (AC50) under setting [1] was 39.8 µM [falling, single point].

`O=C(CSc1nnc(Cc2cccs2)n1C1CCCCC1)N1CCN(C(=O)c2ccco2)CC1`: the AC50 under setting [1] is 10 µM [falling, partial curve].

As to `Oc1cc2c(cc1O)CN(C(=S)NCCc1ccc(Cl)cc1)CCC2`, the half-maximal activity concentration (AC50) under setting [1] was 39.8 µM [falling, partial curve].
